This passage reports binding results from patent publication EP2392597B1.

Protein sequences, listed by entry. Tags and fused reporters are not part of them. Lines headed by an entry give the natural chain unless they say otherwise; changes in a name come on top.
UniProt Q9NPF7: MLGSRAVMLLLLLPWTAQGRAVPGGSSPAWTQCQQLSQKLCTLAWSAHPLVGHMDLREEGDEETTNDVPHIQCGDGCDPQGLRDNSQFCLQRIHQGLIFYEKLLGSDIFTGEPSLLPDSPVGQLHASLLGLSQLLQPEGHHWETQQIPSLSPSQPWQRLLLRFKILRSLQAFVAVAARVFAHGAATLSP

B1: anti-IL-23p19 Fab/scFv cluster 139 (Fab, V domains shown)
VH: EVQLLESGGGLVQPGGSLRLSCAASGFTFSKYDMDWVRQAPGKGLEWVSSISSSGGLTFYADSVKGRFTISRDNSKNTLYLQMNSLRAEDTAVYYCARHDYDFWSGHAFDIWGQGTMVTVSS
VL: DIQMTQSPSSLSASVGDRVTITCRASQGISNYLAWYQQKPGKVPKLLIYGASTVQSGVPSRFSGSGSGTDFTLTISSLQPEDVATYYCQKYNRVPWTFGQGTKVEIK
B2: anti-IL-23p19 Fab/scFv cluster 156 (Fab, V domains shown)
VH: EVQLLESGGGLVQPGGSLRLSCAASGFTFSNYGMSWVRQAPGKGLEWVSRIWPSGGYTKYADSVKGRFTISRDNSKNTLYLQMNSLRAEDTAVYYCARGKGSGSFPLDYWGQGTLVTVSS
VL: QYELTQPPSASGTPGQRVTISCSGSSSNIGSNFVTWYQQLPGTAPKLLSYTNNQRPSGVPDRFSASKSGTSASLAISGLQSEDEADYYCAAWDDNLNCPVFGGGTKLTVL
B3: anti-IL-23p19 Fab/scFv cluster 137 (Fab, V domains shown)
VH: EVQLLESGGGLVQPGGSLRLSCAASGFTFSFYWMGWVRQAPGKGLEWVSSISSSGGKTQYADSVKGRFTISRDNSKNTLYLQMNSLRAEDTAVYYCATGIAVARYWGQGTLVTVSS
VL: QSALTQPASVSGSPGQSITISCTGTSSDVGGYNYVSWYQQHPGKAPKLMIYEVSNRPSGVSNRFSGSKSGNTASLTISGLQAEDEADYYCSSYASSGARVFGTGTKVTVL
B4: anti-IL-23p19 Fab/scFv cluster 149 (Fab, V domains shown)
VH: B3 VH with F31N, W33S, G35S, S52R, K57R, Q59D
VL: DIQMTQSPGTLSVFPGERATLSCRASQNIGINLAWYQQKPGQTPRLLIYGASSRATGIPARFSGSGSGTEFALTISSMQSEDFAVYFCQQYHRWPPLTFGGGTKVEIK
B5: anti-IL-23p19 Fab/scFv cluster 148 (Fab, V domains shown)
VH: B3 VH with F31N, W33S, G35S, S52R, K57R, Q59D
VL: DIQMTQSPGTLSLSPGERATLSCRASQSVSSYLAWYQQKPGQAPRLLIYGASNRATGIPARFSGSGSGTDFTLTISSLEPEDFAVYFCQQYASPPRTFGQGTKLEMK
B6: anti-IL-23p19 Fab/scFv cluster 159 (Fab, V domains shown)
VH: EVQLLESGGGLVQPGGSLRLSCAASGFTFSNYSMSWVRQAPGKGLEWVSYIYSSGGPTQYADSVKGRFTISRDNSKNTLYLQMNSLRAEDMAVYYCARGGGYSYGFPLPFDYWGQGTLVTVSS
VL: DIQMTQSPLSLSVTPGEPASISCMSSQSLLYSNGYNYLDWYLQKPGQSPQLLIYLGANRASGVPDRFSGGGSGTDFRLKISRVEAEDVGVYYCVQTLQTPYTFGQGTKLEIK
B7: anti-IL-23p19 Fab/scFv cluster 144 (Fab, V domains shown)
VH: EVQLLESGGGLVQPGGSLRLSCAASGFTFSLYNMTWVRQAPGKGLEWVSSIGPSGGDTKYADSVKGRFTISRDNSKNTLYLQMNSLRAEDTAVYYCARVMGYYYYYYGMDVWGQGTTVTVSS
VL: DIQMTQSPLSLPVTPGEPASISCRSSQSLLDSNGYNHLDWYVQKPGQSPQLLIYLGSNRASGVPDRFSGSGSGTHFTLKISTVEAEDVGVYYCMQSLHTPQAFGQGTKVEIK
B8: anti-IL-23p19 Fab/scFv cluster 132 (Fab, V domains shown)
VH: EVQLLESGGGLVQPGGSLRLSCAASGFTFSYYEMVWVRQAPGKGLEWVSRIWPSGGYTRYADSVKGRFTISRDNSKNTLYLQMNSLRAEDTAVYYCARGGYDYVWGSYRPYYFDYWGQGTLVTVSS
VL: DIQMTQSPSSLSASVGDRVTITCRASQNINFYLSWFQQKPGKAPKLLIHSVNNLLGPVPSRFSGSGSGTDFTLTIVSLQPEDFATYYCQQGYRPPYTFGQGTKLEIK
B9: anti-IL-23p19 Fab/scFv cluster 145 (Fab, V domains shown)
VH: EVQLLESGGGLVQPGGSLRLSCAASGFTFSYYWMDWVRQAPGKGLEWVSRIYPSGGMTWYADSVKGRFTISRDNSKNTLYLQMNSLRAEDTAVYYCARGRLNGYFDLWGRGTLVTVSS
VL: DIQMTQSPVTLSVSPGERATLSCRSSQPILNNLAWYQHKPGQAPRLLIYGASTRATGIPARFSGSGSGTDFTLTISSLQSEDFAVYYCQQYNNWITFGQGTRLDIK
B10: anti-IL-23p19 Fab/scFv cluster 157 (Fab, V domains shown)
VH: EVQLLESGGGLVQPGGSLRLSCAASGFTFSPYAMYWVRQAPGKGLEWVSYISPSGGITQYADSVKGRFTISRDNSKNTLYLQMNSLRAEDTAVYYCARGDFDWLLHHPNAFDIWGQGTMVTVSS
VL: QSELTQPPSASGTPGQRVTISCSGTLSNIGTNIVSWFQQLPGTAPKLLIYNDHRRPSGVPDRFSGSKSATSASLAISGLQSEDEADYYCAAWDDSLNGVVFGGGTKLTVL
B11: anti-IL-23p19 Fab/scFv cluster 158 (Fab, V domains shown)
VH: EVQLLESGGGLVQPGGSLRLSCAASGFTFSDYPMQWVRQAPGKGLEWVSSIWSSGGITLYADSVKGRFTISRDNSKNTLYLQMNSLRAEDTAVYYCARGTHGGGPPWYYYMDVWGKGTTVTVSS
VL: DIQMTQSPLSLPVTPGEPASISCRSSQSLLHTHGYNYLDWFLQKPGQSPQLLIYMGSNRASGVPDRFSGSGSGTDFTLKISRVEAEDVGVYYCMQARQTPYTFGQGTKLEIK
B12: anti-IL-23p19 Fab/scFv cluster 153 (Fab, V domains shown)
VH: EVQLLESGGGLVQPGGSLRLSCAASGFTFSAYRMYWVRQAPGKGLEWVSGISPSGGKTTYADSVKGRFTISRDNSKNTLYLQMNSLRAEDTAVYYCARGRGDILTAYFDYWGQGTLVTVSS
VL: DIQMTQSPSTLSASVGDTVTITCRASQSISNWVAWYQQKPGKAPKVLIYKASLLESGVPSRFSGSQSGADFTLTISSLQPEDFAVYYCQQSGTSPFTFGPGTKVDLK
B13: anti-IL-23p19 Fab/scFv cluster 150 (Fab, V domains shown)
VH: EVQLLESGGGLVQPGGSLRLSCAASGFTFSWYGMRWVRQAPGKGLEWVSSISSSGGKTRYADSVKGRFTISRDNSKNTLYLQMNSLRAEDTAVYYCARVDQWLRSNDYWGQGTLVTVSS
VL: DIQMTQSPLSLPVTPGEPASISCRSSQSLLQNNGYNYLDWYLQKPGQSPQLLIFLGSNRASGVPDRFSGSGSGTDFTLRISKVEAEDVGVYYCMQALHAPTFGQGTRLEIR
B14: anti-IL-23p19 Fab/scFv cluster 140 (Fab, V domains shown)
VH: EVQLLESGGGLVQPGGSLRLSCAASGFTFSKYGMNWVRQAPGKGLEWVSGIVSSGGQTPYADSVKGRFTISRDNSKNTLYLQMNSLRAEDTAVYYCARGVRGYGDYWYFDLWGRGTLVTVSS
VL: DIQMTQSPLSLPVTPGEPASISCRSSQSLLHRNGYNYLDWYVQRPGQSPQLLIYLGSNRASGVPDRFSGSGSGTDFTLRISRVEAEDVGVYYCMEALQTPPTFGGGTKVEIK
B15: anti-IL-23p19 Fab/scFv cluster 151 (Fab, V domains shown)
VH: EVQLLESGGGLVQPGGSLRLSCAASGFTFSKYFMNWVRQAPGKGLEWVSSISSSGGATTYADSVKGRFTISRDNSKNTLYLQMNSLRAEDTAVYYCAKVGYTNWSIDNWGQGTLVTVSS
VL: DIQMTQSPATLSLSPGERATLSCRASQSVSNYLAWYQQKPGQSPRLLIYYASTRATGIPDRFSGSGSGTDFTLTIRRLEPEDFAVYYCQQYATSPWTFGQGTKVEIK
B16: anti-IL-23p19 Fab/scFv cluster 146 (Fab, V domains shown)
VH: EVQLLESGGGLVQPGGSLRLSCAASGFTFSMYRMMWVRQAPGKGLEWVSSIRPSGGMTMYADSVKGRFTISRDNSKNTLYLQMNSLRAEDTAVYYCTRGWALFGVVRMGDYWGQGTLVTVSS
VL: QSELTQPASVSGSPGQSITISCSGTSSDVGGHNFVSWYQERPGKVPKLIIYDVNNRPSGISSRFSGSKSGNTASLTISGLQAEDEADYFCNSYTITGTYVFGTGTKVTVL
B17: anti-IL-23p19 Fab/scFv cluster 143 (Fab, V domains shown)
VH: EVQLLESGGGLVQPGGSLRLSCAASGFTFSGYAMGWVRQAPGKGLEWVSYIGPSGGWTRYADSVKGRFTISRDNSKNTLYLQMNSLRAEDTAVYYCARHWVSDPFDYWGQGTLVTVSS
VL: DIQMTQSPSSLSASVGDRVTITCRASQGISNYLAWYQQRPGKAPKLLIYAASSLQSGVPSRFSGSGSGTDFTLTISSLQPGDFATYYCQQSYSIPYTFGQGTKLEIK
B18: anti-IL-23p19 Fab/scFv cluster 138 (Fab, V domains shown)
VH: EVQLLESGGGLVQPGGSLRLSCAASGFTFSQYGMRWVRQAPGKGLEWVSSIGPSGGFTRYADSVKGRFTISRDNSKNTFYLQMNSLRAEDTAVYYCARSGSTWYFDLWGRGTLVTVSS
VL: DIVMTQTPPSLPVNPGEPASISCRSSQSLQHSNGYNYVAWYLQKPGQSPQLLIYLGSNRASGVPDRFSGSGSGTDFKLKISRVEAEDVGDYFCMQLLETPLTFGGGTKVEIK
B19: anti-IL-23p19 Fab/scFv cluster 134 (Fab, V domains shown)
VH: EVQLLESGGGLVQPGGSLRLSCAASGFTFSTYRMVWVRQAPGKGLEWVSSIYPSGGHTGYADSVKGRFTISRDNSKNTLYLQMNSLRAEDTAVYYCARDEGSNWYSNWFDPWGQGTLVTVSS
VL: QSVLTQPPSVSVTPGQTAILSCSGDKLGDTYASWFQQKPGQSPVMVMYRGNKRPSGIPERFSGSSSGNTATLTISGTQAVDEADYYCQAWDRTTGVFGTGTRLTVL
B20: anti-IL-23p19 Fab/scFv cluster 136 (Fab, V domains shown)
VH: EVQLLESGGGLVQPGGSLRLSCAASGFTFSSYGMGWVRQAPGKGLEWVSWIYPSGGHTIYADSVKGRFTISRDNSKNTLYLQMNSLRAEDTATYYCAKDRRNYGSYFDYWGQGTLVTVSS
VL: DIQMTQSPSSLSASVGDRVAITCRASQSIDTYLNWYQQKPGKAPKLLIYAASKLEDGVPSRFSGSGTGTDFTLTIRSLQPEDFASYFCQQSYSSPGITFGPGTKVEIK
B21: anti-IL-23p19 Fab/scFv cluster 152 (Fab, V domains shown)
VH: EVQLLESGGGLVQPGGSLRLSCAASGFTFSAYWMSWVRQAPGKGLEWVSGIGPSGYTSYADSVKGRFTISRDNSKNTLYLQMNSLRAEDTAVYYCARLQVDFWSGYYFDQWGQGTLVTVSS
VL: B20 VL

Residue numbers refer to the chain shown, from its start. Results are given in words; binding and its absence hold for the method and conditions named. Some binding calls cover weakened binding; strength is not graded here.

The experiment has as its target human p19 subunit of IL-23 (human) (UniProt Q9NPF7). Nature of the experiment: phage display screening.
In the case of B1, the binding entry is recorded as “binds”.
Then B2, with “binds”.
Then B3, with “binds”; and B4, with “binds”; and B5, with “binds”.
As for B6, the binding entry is “binds”.
With B7, the binding entry was “binds”.
Then B8, with “binds”.
Then B9, with “binds”.
For B10, the binding entry was “binds”.
The same measure for B11: “binds”.
Then B12, with “binds”; and B13, with “binds”.
The same measure for B14: “binds”; for B15: “binds”; for B16: “binds”.
With B17, the binding result was “binds”.
As to B18, the binding entry is “binds”.
The same measure for B19: “binds”; for B20: “binds”; for B21: “binds”.
